Source: ChEMBL document CHEMBL3875233, “Non-kinase targets of protein kinase inhibitors” (Nat Rev Drug Discov, 2017)

Molecular target: Bromodomain testis-specific protein (Homo sapiens, UniProt Q58F21)

Question: With `CCc1cnn2c(NCc3ccc[n+]([O-])c3)cc(N3CCCC[C@H]3CCO)nc12` [DINACICLIB] as the molecule, how does the IC50 read?
Answer: 37 to 61 µM
